Data source: PubChem BioAssay AID1508597 (Cure First, 2020)

- Purpose: 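Knock-downs altering ovarian cancer cell survival with or without PARP inhibitor rucaparib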 (primary screen)
- Cell system: human ovarian carcinoma lines grown from tumours: OCI-P5x (papillary serous) and OCI-C5x (clear cell)
- Knock-down reagent: siRNA pool against human genes, 1.25 pmol siRNA per well
- Timing: 72 h or 96 h, depending on the cell culture
- Challenge: rucaparib 20 µM (about IC30) or vehicle, present until read-out
- Rucaparib or vehicle: Rucaparib
- Cell line: OCI-P5x (serous)
- Read-out: 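ATP luminescence measured at 72 or 96 h according to the culture, then normalised and expressed as percent viability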
- Reading the numbers: viability, normalised: higher = more viable cells remaining
- Hit rule: 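Active when normalised viability falls below 80 percent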
- Calls: active = viability under 80%; inactive = viability 80% or more
Shown is an unselected part of the about 2,100 reagents, under one of the conditions tested. 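Calls flag viability under 80% in either arm, not effects specific to rucaparib; the reference for percent is not stated.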 The record does not give: the 100% reference.

PKLR (GeneID 5313), technical replicate 1 scored viability, normalised (%) = 100; inactive.
For PKLR (GeneID 5313), technical replicate 2, the entry reads viability, normalised (%) = 93.2; inactive.
For PKLR (GeneID 5313), technical replicate 3, the values are viability, normalised (%) = 99.9; inactive.
SNAPC4 (GeneID 6621), technical replicate 1 scored viability, normalised (%) = 42.9; active.
SNAPC4 (GeneID 6621), technical replicate 2 gave viability, normalised (%) = 55.4; active.
SNAPC4 (GeneID 6621), technical replicate 3 showed viability, normalised (%) = 53.1; active.
For MACROH2A1 (GeneID 9555), technical replicate 1, the entry reads viability, normalised (%) = 57.4; active.
MACROH2A1 (GeneID 9555), technical replicate 2 scored viability, normalised (%) = 57.6; active.
MACROH2A1 (GeneID 9555), technical replicate 3 gave viability, normalised (%) = 47.9; active.
For PRDM8 (GeneID 56978), technical replicate 1 the deposit lists viability, normalised (%) = 41.2; active.
For PRDM8 (GeneID 56978), technical replicate 2 the deposit lists viability, normalised (%) = 47.5; active.
PRDM8 (GeneID 56978), technical replicate 3 scored viability, normalised (%) = 47; active.
RAX2 (GeneID 84839), technical replicate 1 scored viability, normalised (%) = 89.7; inactive.
With RAX2 (GeneID 84839), technical replicate 2, the entry reads viability, normalised (%) = 70.8; active.
With RAX2 (GeneID 84839), technical replicate 3 the deposit lists viability, normalised (%) = 74.6; active.
JADE1 (GeneID 79960), technical replicate 1 scored viability, normalised (%) = 51.6; active.
JADE1 (GeneID 79960), technical replicate 2 scored viability, normalised (%) = 57.6; active.
JADE1 (GeneID 79960), technical replicate 3 showed viability, normalised (%) = 60; active.
For NRXN3 (GeneID 9369), technical replicate 1, the values are viability, normalised (%) = 45.6; active.
With NRXN3 (GeneID 9369), technical replicate 2, the entry reads viability, normalised (%) = 50.3; active.
NRXN3 (GeneID 9369), technical replicate 3 showed viability, normalised (%) = 53.1; active.
For DDX25 (GeneID 29118), technical replicate 1 the deposit lists viability, normalised (%) = 54.6; active.
For DDX25 (GeneID 29118), technical replicate 2 the deposit lists viability, normalised (%) = 61.1; active.
With DDX25 (GeneID 29118), technical replicate 3, the values are viability, normalised (%) = 51.9; active.
PHF6 (GeneID 84295), technical replicate 1 showed viability, normalised (%) = 42; active.
PHF6 (GeneID 84295), technical replicate 2 scored viability, normalised (%) = 51; active.
PHF6 (GeneID 84295), technical replicate 3 gave viability, normalised (%) = 56.2; active.
MTOR (GeneID 2475), technical replicate 1 scored viability, normalised (%) = 89.8; inactive.
For MTOR (GeneID 2475), technical replicate 2, the values are viability, normalised (%) = 73.7; active.
MTOR (GeneID 2475), technical replicate 3 gave viability, normalised (%) = 67.9; active.
FOXA1 (GeneID 3169), technical replicate 1 showed viability, normalised (%) = 54.4; active.
FOXA1 (GeneID 3169), technical replicate 2 scored viability, normalised (%) = 61.8; active.
With FOXA1 (GeneID 3169), technical replicate 3, the values are viability, normalised (%) = 57; active.

Records above whose target name starts with N or n:
NRXN3 (GeneID 9369), technical replicate 1 → viability, normalised (%) = 45.6; activity call = active
NRXN3 (GeneID 9369), technical replicate 2 → viability, normalised (%) = 50.3; activity call = active
NRXN3 (GeneID 9369), technical replicate 3 → viability, normalised (%) = 53.1; activity call = active
